Source: PubChem BioAssay AID743266 (National Center for Advancing Translational Sciences (NCATS), 2014)
In all, about 410,000 compounds went through this assay and about 310 (0.076%) were called active. The inconclusive results got no clear call from the source; some entries with a clear call stand among them for comparison. Calls come from the whole dose curve; as a rule, active = well fitted activation curve with a large enough effect; inconclusive = small, poorly fitted or top-dose-only effect, or another doubt; inactive = no such curve, though single readings can be large or run the other way. Potencies beside an inconclusive call are fits to weak or partial responses and may not hold up.

Chains of the proteins cited; added tags and fusions are not shown.
UniProt Q03431, whole entry, looked up: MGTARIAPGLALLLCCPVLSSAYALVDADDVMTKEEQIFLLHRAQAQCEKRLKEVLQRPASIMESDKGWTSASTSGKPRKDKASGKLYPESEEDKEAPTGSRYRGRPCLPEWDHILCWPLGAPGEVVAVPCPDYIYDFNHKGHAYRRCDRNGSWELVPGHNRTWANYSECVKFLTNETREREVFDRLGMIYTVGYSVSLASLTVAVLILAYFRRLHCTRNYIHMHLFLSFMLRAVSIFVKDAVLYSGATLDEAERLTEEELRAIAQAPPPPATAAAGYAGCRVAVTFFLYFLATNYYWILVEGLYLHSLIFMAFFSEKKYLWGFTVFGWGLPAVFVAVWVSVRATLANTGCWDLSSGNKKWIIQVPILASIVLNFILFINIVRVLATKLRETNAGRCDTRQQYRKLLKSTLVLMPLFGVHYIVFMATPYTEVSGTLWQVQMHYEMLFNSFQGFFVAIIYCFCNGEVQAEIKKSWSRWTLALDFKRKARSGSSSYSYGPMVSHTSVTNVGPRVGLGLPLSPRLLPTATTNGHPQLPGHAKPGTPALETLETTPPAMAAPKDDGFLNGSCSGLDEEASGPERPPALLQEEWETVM

These compounds were tested against Parathyroid hormone/parathyroid hormone-related peptide receptor (Homo sapiens) (UniProt Q03431) (assay: qHTS for PTHR1 Agonists: Primary Screen). Settings: HEK293 GP2 PTHR1 cells, GloSensor cAMP luminescence, 1 h; activation: at 115 µM (top of the series) unless noted; series mostly up to 115 µM.
Procedure, shortened: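 HEK-293-derived GP2 cells expressing PTHR1 and a GloSensor cAMP reporter, 3,000/well, plated overnight, given luciferin plus IBMX (each 0.5 mM as added) for 1 h at 37 °C, then compound for 1 h at 37 °C. Luminescence was read after 15 min at room temperature.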
Note: nearly all actives have a fitted effect of over 55% in size.
Potency is the fitted concentration of half-maximal effect.

Structure (SMILES)	Potency	activation
CCCN1C(=O)CN(C2CCCCCC2)C(=O)C1c1ccc(OCC)c(OC)c1 (stereo not given)	inconclusive: 50.1 µM [activator, partial curve, poor fit]	–
CN(Cc1cccs1)c1nc(-c2cccnc2)nc2ccccc12	–	inconclusive: -56.4% [activator]
Cc1csc(NC(=O)CCC(=O)N(CC(=O)NC2CCCC2)Cc2ccccc2)n1	inactive	–
Cc1cnn(C(=O)c2oc3ccccc3c2C)c1	inconclusive: 14.1 µM [activator, partial curve, poor fit]	–
CSc1nc(-c2ccccc2)[nH]c(=S)c1C(C)=O	inconclusive: 1.58 µM [activator, partial curve, poor fit]	–
COc1cccc(Nc2nc(N)nc(C(F)(F)F)n2)c1	inconclusive: 44.7 µM [activator, single point]	–
CC(C)CO/C(=N/S(=O)(=O)c1ccccc1)c1ccccc1	inconclusive: 8.91 µM [activator, single point]	–
CCn1c(SCc2nc3cc(OC)c(OC)cc3c(=O)[nH]2)nnc1-c1ccncc1	inconclusive: 39.8 µM [activator, single point]	–
C#Cc1ccc(NC(=O)C2(C)CCN2C(=O)c2ccccc2CCc2ccccc2)cc1 (stereo not given)	inactive	–
Cc1ccc(OCCCCN2CCCCC2)c(Br)c1	–	inconclusive: 30.3% [activator]
CN(C)c1nc(Oc2ccc(OCCOc3ccccc3)nn2)nc(N(C)C)n1	inconclusive: 89.1 µM [activator, partial curve, poor fit]	–
O=C(CN1CCSCC1)N/N=C/c1ccc(F)cc1	inconclusive: 39.8 µM [activator, single point]	–
CCc1ncc(C(=O)c2ccc(OC)cc2)n1C	inconclusive: 39.8 µM [activator, single point]	–
N#Cc1cccc(NC(=O)c2ccc3c(c2)N(Cc2cccc(Cl)c2)C(=O)c2ccccc2S3(=O)=O)c1	inconclusive: 39.8 µM [activator, partial curve, poor fit]	–
COc1cccc(-c2cc(NC(C)=O)c3ncc(-c4ccc(OC)c(OC)c4)n3c2)c1	inconclusive: 0.767 µM [activator, full curve, poor fit]	–
O=C(CNS(=O)(=O)c1ccccc1)NCc1ccccn1	inactive	–
Cc1cc(N=Nc2ccc(C)c(N=Nc3cc(C)c(N)cc3N)c2)c(N)cc1N	inactive	–
N#C/C(=C\c1cccc([N+](=O)[O-])c1)C(=O)NCc1cccnc1	inconclusive: 0.767 µM [activator, full curve, poor fit]	–
COc1ccc(OC)c(NC(=S)N2CCN(C/C=C/c3ccccc3)CC2)c1	inactive	–
O=C(CSc1ccc(Cl)cc1)Nc1cccc(NC(=O)c2ccco2)c1	inconclusive: 39.8 µM [activator, single point]	–
CCc1c(C)[nH]n(CCC#N)c1=O	–	inconclusive: 7.89% [activator] [at 57.5 µM]
CCn1c(SCC(=O)Nc2ccc(OC)cc2)nc2c1c(=O)n(C)c(=O)n2C	inconclusive: 126 µM [activator, single point]	–
Oc1ccc(/C=N\Nc2cc(N3CCOCC3)nc(N3CCOCC3)n2)c(O)c1	inactive	–
CC(C)c1ccc(NC(=O)C2(C)Cc3c(-c4ccc5c(c4)OCO5)ccnc3O2)cc1 (stereo not given)	inactive	–

6 compounds already listed, sorted by molecular weight, falling.
Structure (SMILES)	Potency	activation
CC(C)c1ccc(NC(=O)C2(C)Cc3c(-c4ccc5c(c4)OCO5)ccnc3O2)cc1 (stereo not given)	inactive	–
Oc1ccc(/C=N\Nc2cc(N3CCOCC3)nc(N3CCOCC3)n2)c(O)c1	inactive	–
COc1ccc(OC)c(NC(=S)N2CCN(C/C=C/c3ccccc3)CC2)c1	inactive	–
CN(C)c1nc(Oc2ccc(OCCOc3ccccc3)nn2)nc(N(C)C)n1	inconclusive: 89.1 µM [activator, partial curve, poor fit]	–
N#C/C(=C\c1cccc([N+](=O)[O-])c1)C(=O)NCc1cccnc1	inconclusive: 0.767 µM [activator, full curve, poor fit]	–
COc1cccc(Nc2nc(N)nc(C(F)(F)F)n2)c1	inconclusive: 44.7 µM [activator, single point]	–

(cont.)

Structure (SMILES)	Potency	activation
O=C(c1ccc2c(c1)N(Cc1cccc(Cl)c1)C(=O)c1ccccc1S2)N1CCOCC1	inactive	–
COC(=O)C1(C(=O)OC)C[C@H](c2ccc(OC)cc2)N(Cc2ccccc2OC)[C@@H]1c1cccs1	inactive	–
CN(C)/C=C/C(=O)c1ccc(Oc2ccccc2)cc1	–	inconclusive: -64.6% [activator]
CCOC(=O)c1ccc(NC(=O)c2nn(C)c3c2COc2ccccc2-3)cc1	inactive	–
c1cc(CNCCN2CCNCC2)ccn1	–	inconclusive: 47.1% [activator]
N#Cc1ccc(NC(=O)C2CC(c3ccc(F)cc3)=NO2)cc1 (stereo not given)	inconclusive: 35.5 µM [activator, single point]	–
COc1ccc(NC(=O)CCCN2C(=O)COc3ccc(C)cc32)cc1OC	–	inconclusive: 40% [activator]
CCOC(=O)c1c(NC(=O)CSc2cn(CCNC(=O)c3ccccc3F)c3ccccc23)sc2c1CCCC2	–	inconclusive: 34.3% [activator]
COC(=O)c1ccc(CN2CCc3ccccc32)cc1	inactive	–
Cc1ccc(NC(=O)CSc2nc(=O)cc(N)n2CCc2ccccc2)cc1	inconclusive: 100 µM [activator, partial curve, poor fit]	–
Cc1ccc2c(c1)N(CCCC(=O)NCc1cccc(F)c1)C(=O)CO2	inconclusive: 25.1 µM [activator, partial curve]	–
CCCN(CCC)CCCNC(=O)c1cc2c(=O)[nH]c3ccccc3c2n1C	inconclusive: 35.5 µM [activator, partial curve, poor fit]	–
O=S(=O)(c1ccc(OCc2nc3ccccc3s2)c(Cl)c1)N1CCOCC1	inactive	–
O=S(CCc1ccncc1)Cc1ccccc1 (stereo not given)	–	inconclusive: 36% [activator] [at 57.5 µM]
COc1cccc(OC(=O)CSc2nnc(-c3ccc4c(c3)OCO4)o2)c1	inconclusive: 39.8 µM [activator, single point]	–
Cc1ccc(NCCC(=O)c2ccc(Cl)cc2)cc1C	–	inconclusive: 100% [activator] [at 57.5 µM]
Cn1c(=O)c2c(ncn2Cc2ccc(Cl)c(Cl)c2)n(C)c1=O	inconclusive: 3.98 µM [activator, partial curve]	–
Cc1ccc(OCC(=O)Nc2ccc3c(c2)nc(CCN2CCCC2)n3C)cc1	inactive	–
Cc1ccc(NC2=NC3(CCCCC3)N=C(N)N2)c(C)c1	inconclusive: 56.2 µM [activator, single point]	–
Cc1cscc1-c1cc2nc(NCCCN(C)C)n(C)c(=O)c2s1	inconclusive: 7.94 µM [activator, full curve]	–
Cc1cccc(C(=O)NNC(=O)c2ccco2)c1	–	inconclusive: -91.9% [activator]
CSc1nc(Cl)c(Br)c(Nc2c[nH]c(=O)[nH]c2=O)n1	inconclusive: 2.24 µM [activator, full curve, poor fit]	–
O=C(Nc1ccc2nc3n(c(=O)c2c1)CCCCC3)C(=O)N1CCN(c2ccc(F)cc2)CC1	–	inconclusive: -89.8% [activator]
COC(=O)c1ccc(OCC(=O)Nc2nn(-c3ccccc3)nc2C(N)=O)cc1	inconclusive: 39.8 µM [activator, single point]	–

Structure (SMILES)	Potency	activation
CC(Sc1ccc2nnc(-c3ccc(F)cc3)n2n1)C(=O)O (stereo not given)	inconclusive: 158 µM [activator, single point]	–
CCC(=O)N/C=C/n1cnc2cc(C(F)(F)F)ccc21	inconclusive: 50.1 µM [activator, single point]	–
COc1ccc(-n2c(=O)c3ccccc3n(CC(=O)NCc3ccco3)c2=O)cc1	inconclusive: 112 µM [activator, single point]	–
C=CCSc1ncccc1C(=O)O	–	inconclusive: 49.2% [activator]
CC(=O)C1=C(C)Nc2ncnn2C1c1ccc(Cl)cc1Cl (stereo not given)	–	inconclusive: -23.6% [activator] [at 57.5 µM]
O=C1CSc2ccc(C(=O)NCc3ccccn3)cc2N1	inconclusive: 10 µM [activator, full curve, poor fit]	–
COc1ccc(CNC(=O)CSc2n[nH]c(N)n2)cc1	inconclusive: 126 µM [activator, single point]	–
O=C(Oc1ccccc1)c1ccc(-n2cnnn2)cc1	inconclusive: 10 µM [activator, partial curve, poor fit]	–
COc1ccc(-n2c(=O)c3c4c(sc3n3c(=S)[nH]nc23)COC(C(C)C)C4)cc1 (stereo not given)	–	inconclusive: -2.97% [activator]
O=C(NCCC1=CCCCC1)C1CCN(S(=O)(=O)N2CCOCC2)CC1	inconclusive: 25.1 µM [activator, partial curve, poor fit]	–
NC(=O)c1ccc(NC(=O)CC23CC4CC(CC(Br)(C4)C2)C3)cc1	–	inconclusive: 46.8% [activator]
COc1ccc(NC(=O)c2sc3nc(Cc4ccccc4)cc(C(F)(F)F)c3c2N)cc1OC	inactive	–
COc1ccccc1N1CCN(S(=O)(=O)c2ccc(F)cc2)CC1	inconclusive: 5.01 µM [activator, partial curve, poor fit]	–
CN1CCN(CC(=O)O)CC1	inactive	–
COc1ccc(NC(=O)C2CCCN(S(=O)(=O)c3ccc(C)cc3)C2)cc1OC (stereo not given)	inconclusive: 39.8 µM [activator, single point]	–
CC(=O)Nc1cccc(C(=O)N2CCN(S(=O)(=O)c3ccc4ccccc4c3)CC2)c1	inactive	–
O=C(COC(=O)/C=C/c1ccc(F)cc1)NC1CCS(=O)(=O)C1 (stereo not given)	inactive	–
Cc1ccc(CNC(=O)CSc2ccc(-c3sc(-c4ccccc4)nc3C)nn2)cc1	–	inconclusive: 42.6% [activator]
O=C(COC(=O)CNC(=O)c1ccccc1F)NC1CC1	inconclusive: 35.5 µM [activator, partial curve, poor fit]	–
CCCCn1c(SCC(=O)Nc2cccc(OC)c2)nc2ccsc2c1=O	–	inconclusive: -40.4% [activator]
O=C1c2ccccc2-c2onc3c(N4CCN(CCO)CC4)cc(N4CCN(C(=O)c5ccco5)CC4)c1c23	inactive	–
O=C(O)c1ccccc1NC(=O)C1CCCO1 (stereo not given)	inconclusive: 44.7 µM [activator, single point]	–
